This is one part of the list.

The assay has as its target T1, OsSMF1 (Oryza sativa, UniProt Q6ZLB0 1-436).
T1 sequence: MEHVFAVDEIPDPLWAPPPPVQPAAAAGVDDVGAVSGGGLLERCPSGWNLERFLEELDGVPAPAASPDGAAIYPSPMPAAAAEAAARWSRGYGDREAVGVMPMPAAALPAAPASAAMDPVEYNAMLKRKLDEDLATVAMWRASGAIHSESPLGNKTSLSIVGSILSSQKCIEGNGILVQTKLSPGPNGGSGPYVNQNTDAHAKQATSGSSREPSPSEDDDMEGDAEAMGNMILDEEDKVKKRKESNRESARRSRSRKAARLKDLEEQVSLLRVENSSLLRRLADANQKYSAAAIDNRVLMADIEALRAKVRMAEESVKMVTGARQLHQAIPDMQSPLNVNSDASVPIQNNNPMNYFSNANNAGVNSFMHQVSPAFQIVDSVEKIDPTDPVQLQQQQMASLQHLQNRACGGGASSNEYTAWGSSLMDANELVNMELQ
The assay can be described thus: protein-binding microarray (RPBM); PBS, 2% BSA, 51.3 ng/ul salmon testes DNA, 50 uM zinc acetate, 200 nM TF, 25 C, 1 h; high values mean tight binding. Conditions: protein: recombinant; tags: N-terminal polyhistidine and DsRed monomer fusion (pET32a); chain copies: 2; label: CyDye5-dUTP incorporated in the synthesized complementary strand; 3' TTTTT single-stranded linker to array surface; dsDNA, one strand shown. The method, boiled down: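 The binding signal is fluorescence intensity per feature, in arbitrary units, read on an Axon 4000B scanner. Polyhistidine- and DsRed-tagged transcription factors (N-terminal fusions) from E. coli BL21-CodonPlus were purified on Ni–NTA and applied at 200 nM for 1 h at 25 °C to a double-stranded, BSA-blocked custom Agilent array in buffer with 50 µM zinc acetate.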
Take “CCCATCGGAGGCAGTTCAAAGGGCTGTGTCAGACTGTTTACGGAGTCACCTAGTGCAG”: the binding signal was 3740 fluorescence intensity (a.u.). For “TCTGGCAAACCCGATGTGACGTCTCGTCCTTCATGGTTCGCGGAGTCACCTAGTGCAG” the value was 3200 fluorescence intensity (a.u.); for “CAGGTGGTTGTGTGCATATAACAGATACCTTCGATGTGCACGGAGTCACCTAGTGCAG”, 31300 fluorescence intensity (a.u.); for “TCGCTCCGTGCTCGACTCGTGTCTTCCACCTCATTCTCGACGGAGTCACCTAGTGCAG”, 5890 fluorescence intensity (a.u.). In the case of “CGGCCGCGTCGGTCGCCACGTCTCCATCTCCCTCCACACCCGGAGTCACCTAGTGCAG”, the binding signal was 6940 fluorescence intensity (a.u.). Next, “AGTTAGTACCTCCTCCTTTGACGGACGCGTCGACCATTTCCGGAGTCACCTAGTGCAG”: 3760 fluorescence intensity (a.u.). Turning to “CTGCATGTTGGTGACTTGTCCAAATCAACAATAGCTCCTACGGAGTCACCTAGTGCAG”, the binding signal is 20700 fluorescence intensity (a.u.). Next, “TTTTGCGTGCGGGCGGTATAACTTGACCGCGGTCCACTTACGGAGTCACCTAGTGCAG”: 24600 fluorescence intensity (a.u.).

Regarding “TATTAAGTCTAATTAATCCATGATTAGCCTATGTGATGCTCGGAGTCACCTAGTGCAG”, the binding signal is 4030 fluorescence intensity (a.u.). Next, “AAAAGAACTACGAAAACAAATCGTATGATACAGTTCGTTTCGGAGTCACCTAGTGCAG”: 3290 fluorescence intensity (a.u.); “ATAGGGAGCTATAAACAGTTAAACACCAGCTTGTCGATTACGGAGTCACCTAGTGCAG”: 3410 fluorescence intensity (a.u.). For “AGATCTGCCACGAGTTGCCGTGTCCACGTTCCACTCTTCTCGGAGTCACCTAGTGCAG” the value was 3420 fluorescence intensity (a.u.); for “ATCCCATGCGTCTCCAATCGACGCCACGTGCACCTTCTCCCGGAGTCACCTAGTGCAG”, 12400 fluorescence intensity (a.u.); for “AACCAAATATTTTACCACGATGACTACTAGAGTATGGTGTCGGAGTCACCTAGTGCAG”, 3550 fluorescence intensity (a.u.).

Regarding “CATGTGCGCACACACACACACAGCTCACTCGCTCACACGACGGAGTCACCTAGTGCAG”, the binding signal was 3760 fluorescence intensity (a.u.).

As to “TTGCTTCCTCCCTGTCATATGCACAGTAGTTAAACACAGACGGAGTCACCTAGTGCAG”, the binding signal was 4480 fluorescence intensity (a.u.). For “TCAACGAGCCGAGCTCGAGCGAGCTCGTCTGCCCAAGCTCCGGAGTCACCTAGTGCAG” the value was 19500 fluorescence intensity (a.u.); for “GAGCGAACGGCCGTCTGCCACGTCATTTTCACCGCCCTCTCGGAGTCACCTAGTGCAG”, 28800 fluorescence intensity (a.u.).

As to “CAGTGACGTGAGGGGACACGTGGCTCGGGCCGACCACTCCCGGAGTCACCTAGTGCAG”, the binding signal is 14200 fluorescence intensity (a.u.). On to “CTGTTGTTTATCTCCTGGTGAGTCCTCCTGTCATGTTAGCCGGAGTCACCTAGTGCAG”, for which the binding signal was 9740 fluorescence intensity (a.u.). Next, “CCCTCTCCTCTCCGCCACCACGCCACCGTGCTTCCCTCCCCGGAGTCACCTAGTGCAG”: 3180 fluorescence intensity (a.u.); “GGGATTGTTGATACACGTAAGACTGCTTTCTGTCTATCCCCGGAGTCACCTAGTGCAG”: 11700 fluorescence intensity (a.u.); “TGCAAGCAGCAAGCGTGTCACTACGTTTACATGACATGCACGGAGTCACCTAGTGCAG”: 47600 fluorescence intensity (a.u.).

For “CTACATGTAAAGTCAGCAAGATTGCTGATTTACATGTGTTCGGAGTCACCTAGTGCAG”, the binding signal is 5360 fluorescence intensity (a.u.). For “CTCTCTTCCTCGCCCTCGGCCACCCGGCGCCTCCTTCCCTCGGAGTCACCTAGTGCAG” the value was 3650 fluorescence intensity (a.u.).

As to “AAAACTCGAGCTCACGCGCACACGCACGCGACGCGACGCGCGGAGTCACCTAGTGCAG”, the binding signal was 3610 fluorescence intensity (a.u.). Next, “CTTCCGGTGATGGCCACGTCGCCTGGTGCAGGAGCTGGCACGGAGTCACCTAGTGCAG”: 4140 fluorescence intensity (a.u.); “CTCCTCGTGACGTCGTCTCCTCCACTCCCTCCAGTGACCACGGAGTCACCTAGTGCAG”: 6380 fluorescence intensity (a.u.). For “ATTTCGTCGAGGCTAGGGTGACATATCTTAAGATTGATGACGGAGTCACCTAGTGCAG” the value was 3290 fluorescence intensity (a.u.). Next, “ACGCCAGATTTGTCCAACGTGACGGCTGAGTCAGCGTGGACGGAGTCACCTAGTGCAG”: 9270 fluorescence intensity (a.u.); “GCAAACAATTGGCGTCAATGCGTCATGCGCATCAGCGCATCGGAGTCACCTAGTGCAG”: 7650 fluorescence intensity (a.u.); “AGCATTTCCATCCACCACACGCGTACGTCCCCGTCACGCGCGGAGTCACCTAGTGCAG”: 7440 fluorescence intensity (a.u.). As to “TGGACTCCTGTGGGTCTCACGTGTAGTCAAACTTGCCTTGCGGAGTCACCTAGTGCAG”, the binding signal was 4460 fluorescence intensity (a.u.). Next, “CCGCCTGCGAAAATGGATGATTTTCACCGTCGTTGGTCTGCGGAGTCACCTAGTGCAG”: 3350 fluorescence intensity (a.u.); “ACAACAAATCCAAGTGTACGTACGTACGTACACCGTGCACCGGAGTCACCTAGTGCAG”: 3390 fluorescence intensity (a.u.). Next, “GAAGGCTTGTTGCATCACGATCTGAAGTTCGGGTCCATATCGGAGTCACCTAGTGCAG”: 3990 fluorescence intensity (a.u.); “ATGTTTTATGCACTTGTTTCACTGTCACATCCATTGTATGCGGAGTCACCTAGTGCAG”: 3770 fluorescence intensity (a.u.); “CATGTGAACCTGTGACTCATCTGATGAGCCTTGCTTGGAGCGGAGTCACCTAGTGCAG”: 10900 fluorescence intensity (a.u.).

Consider “AGATTGCCAATTGTTTAACACGTGTGAGTATTATATGTAACGGAGTCACCTAGTGCAG”, for which the binding signal was 3660 fluorescence intensity (a.u.).

Regarding “TGGCTGACTGCTTGTCAACGTGGATCATCATCATACAGATCGGAGTCACCTAGTGCAG”, the binding signal was 4880 fluorescence intensity (a.u.).

For the sequence “CGGGTGTACGAGGACTACCCACTGACACGTGGGCCCCACTCGGAGTCACCTAGTGCAG”, the binding signal is 12400 fluorescence intensity (a.u.). For “TTTCACTCTCGCGAACCTTCCACACACAGACTAGGAGCTTCGGAGTCACCTAGTGCAG” the value was 32500 fluorescence intensity (a.u.).

(Values after publication PMC7819943, “Rice protein-binding microarrays: a tool to detect cis-acting elements near promoter regions in rice”.)
